No constants are given. Whether binding was seen depends on the method and setting. Binding seen in cells or lysates may run through a third protein. A yes stands for co-enrichment or nearness to the bait. Other partners may have been found.
The substances below were run against T1, leupaxin (LPXN) (human (endogenous in MV4-11, MV4-11R and OCI-AML3)) (UniProt O60711) (assay: affinity purification with mass spectrometry; co-immunoprecipitation of endogenous LPXN with two LPXN antibodies (Abcam, LSBio) on Dynabeads Protein G from MV4-11 WT, MV4-11R and OCI-AML3 cells; proteins crosslinked with 3 mM DSS for 30 min at room temperature; elution in 6 M urea buffer; IgG IP as control).
T1 sequence: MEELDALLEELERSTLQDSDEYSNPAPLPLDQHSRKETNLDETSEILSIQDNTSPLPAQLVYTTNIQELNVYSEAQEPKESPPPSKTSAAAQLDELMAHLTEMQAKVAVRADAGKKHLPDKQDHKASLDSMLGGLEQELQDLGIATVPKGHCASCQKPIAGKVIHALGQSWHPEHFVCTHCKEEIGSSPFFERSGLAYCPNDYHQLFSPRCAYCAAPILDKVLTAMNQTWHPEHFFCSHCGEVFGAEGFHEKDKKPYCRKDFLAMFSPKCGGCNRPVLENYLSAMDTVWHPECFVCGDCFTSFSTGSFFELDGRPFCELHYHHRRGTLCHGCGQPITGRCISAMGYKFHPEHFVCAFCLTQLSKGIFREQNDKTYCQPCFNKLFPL

Amino acid sequences for entries named in this document (tags omitted).
UniProt Q14289: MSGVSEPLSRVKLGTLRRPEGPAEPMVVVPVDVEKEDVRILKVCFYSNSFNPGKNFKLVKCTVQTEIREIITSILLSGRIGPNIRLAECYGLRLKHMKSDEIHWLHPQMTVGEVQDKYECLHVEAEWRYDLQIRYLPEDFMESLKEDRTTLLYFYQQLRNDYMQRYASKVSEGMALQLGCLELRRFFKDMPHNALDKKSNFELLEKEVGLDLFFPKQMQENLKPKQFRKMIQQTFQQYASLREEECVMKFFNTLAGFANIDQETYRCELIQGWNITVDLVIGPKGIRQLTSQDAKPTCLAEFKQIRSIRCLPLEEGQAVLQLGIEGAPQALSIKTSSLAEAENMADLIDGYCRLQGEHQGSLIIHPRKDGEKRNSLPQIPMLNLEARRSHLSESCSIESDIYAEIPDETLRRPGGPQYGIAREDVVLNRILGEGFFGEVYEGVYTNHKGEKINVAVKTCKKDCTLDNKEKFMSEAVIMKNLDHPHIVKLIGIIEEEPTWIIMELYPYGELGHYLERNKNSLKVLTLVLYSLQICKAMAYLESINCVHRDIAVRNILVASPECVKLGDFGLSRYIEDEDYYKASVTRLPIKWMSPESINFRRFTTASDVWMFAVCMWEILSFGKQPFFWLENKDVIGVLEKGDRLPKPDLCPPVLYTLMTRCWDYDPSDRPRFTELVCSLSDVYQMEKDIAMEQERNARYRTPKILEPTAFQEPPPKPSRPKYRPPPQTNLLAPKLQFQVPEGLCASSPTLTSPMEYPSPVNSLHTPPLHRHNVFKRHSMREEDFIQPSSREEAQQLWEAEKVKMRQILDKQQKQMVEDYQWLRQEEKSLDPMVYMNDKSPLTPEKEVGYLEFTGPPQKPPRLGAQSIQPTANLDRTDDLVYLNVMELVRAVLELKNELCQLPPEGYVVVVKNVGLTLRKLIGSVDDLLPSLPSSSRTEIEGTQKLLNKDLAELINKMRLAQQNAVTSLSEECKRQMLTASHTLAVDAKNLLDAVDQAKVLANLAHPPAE
UniProt Q86UX7: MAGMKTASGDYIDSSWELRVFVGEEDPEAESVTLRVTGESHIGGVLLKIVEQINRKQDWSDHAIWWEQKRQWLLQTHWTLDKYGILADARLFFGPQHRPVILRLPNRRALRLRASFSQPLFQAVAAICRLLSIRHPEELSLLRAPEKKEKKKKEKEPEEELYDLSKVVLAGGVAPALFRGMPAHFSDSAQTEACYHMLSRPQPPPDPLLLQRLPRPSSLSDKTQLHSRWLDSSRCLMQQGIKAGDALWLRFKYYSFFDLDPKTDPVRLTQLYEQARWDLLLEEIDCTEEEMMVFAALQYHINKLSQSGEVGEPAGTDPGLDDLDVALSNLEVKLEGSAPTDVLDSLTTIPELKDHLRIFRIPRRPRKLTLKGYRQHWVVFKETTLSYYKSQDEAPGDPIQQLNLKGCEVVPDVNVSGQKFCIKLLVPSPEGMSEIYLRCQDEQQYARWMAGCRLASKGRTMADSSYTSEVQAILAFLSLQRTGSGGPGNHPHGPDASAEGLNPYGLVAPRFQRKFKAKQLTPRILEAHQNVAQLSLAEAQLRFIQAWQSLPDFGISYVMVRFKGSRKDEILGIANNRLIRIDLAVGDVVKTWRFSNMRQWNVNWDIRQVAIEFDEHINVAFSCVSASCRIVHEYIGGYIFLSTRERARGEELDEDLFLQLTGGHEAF
UniProt Q9Y490: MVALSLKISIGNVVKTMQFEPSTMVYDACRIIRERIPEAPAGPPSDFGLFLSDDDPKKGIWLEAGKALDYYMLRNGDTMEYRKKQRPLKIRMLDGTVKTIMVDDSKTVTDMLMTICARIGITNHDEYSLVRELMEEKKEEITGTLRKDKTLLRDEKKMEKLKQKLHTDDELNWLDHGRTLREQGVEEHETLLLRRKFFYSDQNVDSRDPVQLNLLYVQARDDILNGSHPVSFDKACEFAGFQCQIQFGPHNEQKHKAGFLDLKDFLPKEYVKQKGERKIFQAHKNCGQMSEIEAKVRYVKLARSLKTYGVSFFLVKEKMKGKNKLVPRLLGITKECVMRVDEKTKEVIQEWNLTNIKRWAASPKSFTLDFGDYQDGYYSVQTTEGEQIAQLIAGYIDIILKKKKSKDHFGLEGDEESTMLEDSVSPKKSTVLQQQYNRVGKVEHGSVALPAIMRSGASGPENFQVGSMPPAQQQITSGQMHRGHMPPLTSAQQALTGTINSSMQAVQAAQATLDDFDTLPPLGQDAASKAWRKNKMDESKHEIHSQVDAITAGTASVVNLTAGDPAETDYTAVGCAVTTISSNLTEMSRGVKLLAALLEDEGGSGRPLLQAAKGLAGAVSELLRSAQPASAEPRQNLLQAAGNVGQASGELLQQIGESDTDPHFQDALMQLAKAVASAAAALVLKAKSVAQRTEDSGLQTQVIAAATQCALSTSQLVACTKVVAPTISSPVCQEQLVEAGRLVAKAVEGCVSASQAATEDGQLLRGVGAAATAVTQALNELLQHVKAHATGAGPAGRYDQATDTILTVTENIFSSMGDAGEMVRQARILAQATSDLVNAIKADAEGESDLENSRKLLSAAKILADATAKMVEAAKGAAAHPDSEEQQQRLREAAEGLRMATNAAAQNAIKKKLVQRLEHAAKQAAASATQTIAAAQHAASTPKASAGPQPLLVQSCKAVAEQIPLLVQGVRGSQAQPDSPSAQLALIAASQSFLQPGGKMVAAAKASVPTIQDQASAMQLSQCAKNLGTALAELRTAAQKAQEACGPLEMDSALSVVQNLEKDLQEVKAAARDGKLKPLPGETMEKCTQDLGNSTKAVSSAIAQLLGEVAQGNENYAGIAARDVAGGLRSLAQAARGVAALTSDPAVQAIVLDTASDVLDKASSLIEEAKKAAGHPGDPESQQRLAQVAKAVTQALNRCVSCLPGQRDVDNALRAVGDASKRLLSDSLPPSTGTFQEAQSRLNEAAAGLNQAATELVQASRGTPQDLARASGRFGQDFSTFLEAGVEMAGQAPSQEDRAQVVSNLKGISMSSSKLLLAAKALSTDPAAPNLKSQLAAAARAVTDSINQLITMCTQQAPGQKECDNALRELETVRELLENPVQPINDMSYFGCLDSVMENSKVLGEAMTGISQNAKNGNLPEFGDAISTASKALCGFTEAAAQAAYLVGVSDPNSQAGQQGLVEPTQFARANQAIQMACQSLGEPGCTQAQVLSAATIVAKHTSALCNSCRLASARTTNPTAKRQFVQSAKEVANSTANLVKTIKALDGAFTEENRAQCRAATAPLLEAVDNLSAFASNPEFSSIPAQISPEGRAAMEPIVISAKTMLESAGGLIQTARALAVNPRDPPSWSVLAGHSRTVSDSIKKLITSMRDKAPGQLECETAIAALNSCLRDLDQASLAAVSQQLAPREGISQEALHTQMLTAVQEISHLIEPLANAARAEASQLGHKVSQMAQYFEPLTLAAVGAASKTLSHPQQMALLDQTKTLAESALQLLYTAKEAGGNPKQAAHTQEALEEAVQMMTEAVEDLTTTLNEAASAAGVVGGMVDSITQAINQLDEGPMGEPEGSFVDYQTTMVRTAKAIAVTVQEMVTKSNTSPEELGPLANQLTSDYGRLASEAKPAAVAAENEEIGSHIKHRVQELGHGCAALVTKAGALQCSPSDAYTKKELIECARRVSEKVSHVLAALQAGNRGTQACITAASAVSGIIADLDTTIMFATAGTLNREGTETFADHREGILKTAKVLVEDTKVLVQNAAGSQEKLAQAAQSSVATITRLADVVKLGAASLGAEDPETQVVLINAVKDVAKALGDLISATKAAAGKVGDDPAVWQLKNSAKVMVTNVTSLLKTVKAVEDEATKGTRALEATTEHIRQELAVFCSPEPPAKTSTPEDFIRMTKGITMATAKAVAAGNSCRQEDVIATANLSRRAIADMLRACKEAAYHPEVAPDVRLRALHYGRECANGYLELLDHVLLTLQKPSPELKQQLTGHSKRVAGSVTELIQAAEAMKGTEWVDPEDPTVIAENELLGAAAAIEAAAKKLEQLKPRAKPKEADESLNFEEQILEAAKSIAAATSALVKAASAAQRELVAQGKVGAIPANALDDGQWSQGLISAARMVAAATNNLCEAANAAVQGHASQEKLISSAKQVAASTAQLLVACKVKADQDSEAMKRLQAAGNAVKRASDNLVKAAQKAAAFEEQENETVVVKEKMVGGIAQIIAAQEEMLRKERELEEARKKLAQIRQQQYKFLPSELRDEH

| Substance | binding |
| --- | --- |
| Proline-rich tyrosine kinase 2 (PTK2B/PYK2) (from UniProt Q14289 1-1009) (enzyme) | binds |
| fermitin family homolog 3 (FERMT3) (from UniProt Q86UX7 1-667) | binds |
| talin-1 (TLN1) (from UniProt Q9Y490 1-2541) | binds |
